# Some of these results come from one statement about several compounds together. At least one structure is not confirmed: it was looked up by name or label, or the drawing left a doubt.
# Amino acid sequences for entries named in this document (tags omitted). A change or cut given only in a name is not applied to a line headed by its entry.
# UniProt Q00975, whole entry: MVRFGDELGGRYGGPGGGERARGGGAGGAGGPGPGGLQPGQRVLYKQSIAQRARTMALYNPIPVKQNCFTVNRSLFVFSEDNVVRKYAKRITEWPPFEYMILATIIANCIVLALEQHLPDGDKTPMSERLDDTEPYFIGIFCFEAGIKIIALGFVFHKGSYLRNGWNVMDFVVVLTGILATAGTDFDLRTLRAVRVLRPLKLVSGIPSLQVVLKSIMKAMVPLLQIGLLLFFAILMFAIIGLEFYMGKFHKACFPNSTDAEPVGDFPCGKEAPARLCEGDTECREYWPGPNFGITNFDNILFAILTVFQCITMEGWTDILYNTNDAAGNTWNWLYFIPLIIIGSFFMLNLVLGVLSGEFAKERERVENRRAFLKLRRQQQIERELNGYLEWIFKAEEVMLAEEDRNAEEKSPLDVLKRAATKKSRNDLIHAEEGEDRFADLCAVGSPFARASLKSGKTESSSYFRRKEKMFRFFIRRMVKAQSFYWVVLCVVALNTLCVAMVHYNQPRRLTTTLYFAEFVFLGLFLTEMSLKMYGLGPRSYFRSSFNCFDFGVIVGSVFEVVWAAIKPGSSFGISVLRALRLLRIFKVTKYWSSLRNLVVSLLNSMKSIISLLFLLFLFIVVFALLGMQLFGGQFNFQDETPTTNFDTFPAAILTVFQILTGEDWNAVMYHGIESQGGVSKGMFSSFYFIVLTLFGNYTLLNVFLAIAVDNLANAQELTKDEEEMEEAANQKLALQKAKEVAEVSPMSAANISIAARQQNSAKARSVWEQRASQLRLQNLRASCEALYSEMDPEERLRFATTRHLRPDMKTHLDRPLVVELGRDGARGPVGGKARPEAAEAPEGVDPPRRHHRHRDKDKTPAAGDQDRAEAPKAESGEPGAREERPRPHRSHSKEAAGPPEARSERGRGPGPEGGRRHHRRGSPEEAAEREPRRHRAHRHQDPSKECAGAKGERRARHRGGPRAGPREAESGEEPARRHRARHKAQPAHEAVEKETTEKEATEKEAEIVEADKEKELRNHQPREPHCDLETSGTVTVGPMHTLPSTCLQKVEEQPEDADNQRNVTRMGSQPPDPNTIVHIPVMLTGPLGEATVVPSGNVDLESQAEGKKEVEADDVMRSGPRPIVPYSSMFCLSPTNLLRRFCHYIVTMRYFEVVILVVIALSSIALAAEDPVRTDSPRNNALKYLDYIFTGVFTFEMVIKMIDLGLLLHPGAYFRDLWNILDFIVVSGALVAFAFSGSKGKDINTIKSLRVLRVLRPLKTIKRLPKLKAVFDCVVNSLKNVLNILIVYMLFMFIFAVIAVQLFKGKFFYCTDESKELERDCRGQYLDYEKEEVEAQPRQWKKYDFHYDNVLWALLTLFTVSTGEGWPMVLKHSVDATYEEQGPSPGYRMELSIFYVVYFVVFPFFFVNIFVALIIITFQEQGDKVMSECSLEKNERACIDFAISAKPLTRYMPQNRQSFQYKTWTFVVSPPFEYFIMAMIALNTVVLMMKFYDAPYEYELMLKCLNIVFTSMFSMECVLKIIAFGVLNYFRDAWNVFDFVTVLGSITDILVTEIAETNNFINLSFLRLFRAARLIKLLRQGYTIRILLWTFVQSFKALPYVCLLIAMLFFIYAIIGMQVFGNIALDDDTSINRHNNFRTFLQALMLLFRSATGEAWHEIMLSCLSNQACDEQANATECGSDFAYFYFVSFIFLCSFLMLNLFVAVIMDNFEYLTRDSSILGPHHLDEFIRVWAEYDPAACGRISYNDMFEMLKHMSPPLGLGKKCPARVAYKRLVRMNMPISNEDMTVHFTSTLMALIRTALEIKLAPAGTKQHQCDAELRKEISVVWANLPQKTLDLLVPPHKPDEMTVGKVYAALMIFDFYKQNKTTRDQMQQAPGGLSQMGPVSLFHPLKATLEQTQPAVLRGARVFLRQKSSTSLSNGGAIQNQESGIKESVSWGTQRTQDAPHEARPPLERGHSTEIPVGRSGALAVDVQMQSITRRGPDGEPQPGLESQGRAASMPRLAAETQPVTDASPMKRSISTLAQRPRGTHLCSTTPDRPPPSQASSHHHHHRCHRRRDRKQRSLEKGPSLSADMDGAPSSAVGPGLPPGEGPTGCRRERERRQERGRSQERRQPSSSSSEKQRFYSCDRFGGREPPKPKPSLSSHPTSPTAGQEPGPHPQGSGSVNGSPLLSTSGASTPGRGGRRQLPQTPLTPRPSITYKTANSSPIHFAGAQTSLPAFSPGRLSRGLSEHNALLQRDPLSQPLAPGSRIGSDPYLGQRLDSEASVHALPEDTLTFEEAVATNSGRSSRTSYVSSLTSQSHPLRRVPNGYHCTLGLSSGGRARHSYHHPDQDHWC
# Target: T1, human Cav2.2 α (α1B) subunit, along with the human β3 and α2δ1 auxiliary subunits (Homo sapiens, UniProt Q00975)
# T1 construct: expressed in transfected cells
# Assay: hCav2.2 assay, IonWorks planar array electrophysiology in stable HEK293 cell line
# Format: cell-based
# Conditions: for use-dependent pUD30: concentration producing 30% use-dependent inhibition, 10th versus 1st depolarising pulse, 10 Hz, -90 mV to +10 mV, HEK293 cells
# Procedure: Compounds as defined in the first or second aspect may be tested for in vitro biological activity in the hCav2.2 assay in accordance with the following studies:
# Stable cell lines expressing the human Cav2.2 α (α1B) subunit, along with the human β3 and α2δ1 auxiliary subunits were created following sequential transfection and selection of human embryonic kidney (HEK293) cells. HEK293 cells were cultured in Dulbecco's modified Eagles media/F12 media (Invitrogen, Cat #041-95750V) containing 10% fetal bovine serum, with added L-glutamine (2 mM; Invitrogen, Cat #25030-024) and non-essential amino acids (5%; Invitrogen, Cat #11140-035). Initially HEK293 cells were transfected with two plasmid vectors for expression of the hCav2.2 α subunit (pCIN5-hCav2.2 which carries a neomycin resistance marker) and the hCav β3 subunit (pCIH-hCav β3 which carries a hygromycin resistance marker). Clonal cell lines were isolated following selection in media supplemented with 0.4 mg ml^−1 Geneticin G418 (Invitrogen, Cat #10131-027) and 0.1 mg ml^−1 hygromycin (Invitrogen, Cat #10687-010). These clonal cell lines were assessed for Cav2.2 α/β3-mediated current expression using the IonWorks planar array electrophysiology technology (described below). A clonal line was identified that gave a reasonable level of functional Cav2.2 α/β3 current expression. This cell line was transfected with a plasmid vector for expression of the human α2δ1 subunit (pCIP-α2δ1 which carries a puromycin resistance marker) and clonal cell lines isolated following selection in media containing 0.62 μg ml^−1 puromycin (Sigma, Cat #P-7255), in addition to 0.4 mg ml^−1 Geneticin G418 and 0.1 mg ml^−1 hygromycin. Several cell lines were identified that gave robust levels of Cav2.2 α/β3/α2δ1-mediated current expression and one of these was selected for compound profiling. Expression of all three subunits within this cell line was continuously maintained by the inclusion of G418 (0.4 mg ml^−1), hygromycin (0.1 mg ml^−1) and puromycin (0.62 μg ml^−1). Cells were maintained at 37° C. in a humidified environment containing 5% CO2 in air. Cells were liberated from the T175 culture flasks for passage and harvesting using TrpLE (Invitrogen, Cat #12604-013).
# Cells were grown to 30-60% confluence in T175 flasks and maintained at 30° C. for 24 hrs prior to recording. Cells were lifted by removing the growth media, washing with Ca^2+ free PBS (Invitrogen, Cat #14190-094) and incubating with 3 ml of warmed (37° C.) TrpLE (Invitrogen, Cat #12604-013) for 6 minutes. Lifted cells were suspended in 10 ml of extracellular buffer. Cell suspension was then placed into a 15 ml tube and centrifuged for 2 minutes at 700 rpm. After centrifugation, the supernatant was removed and the cell pellet was resuspended in 4.5 ml of extracellular solution.
# Currents were recorded at room temperature (21-23° C.) using the IonWorks planar array electrophysiology technology (Molecular Devices Corp.). Stimulation protocols and data acquisition were carried out using a microcomputer (Dell Pentium 4). In order to determine planar electrode hole resistances (Rp), a 10 mV, 160 ms potential difference was applied across each hole. These measurements were performed before cell addition. After cell addition a seal test was performed prior to antibiotic (amphotericin) circulation to achieve intracellular access. Leak subtraction was conducted in all experiments by applying a 160 ms hyperpolarizing (10 mV) prepulse 200 ms before the test pulses to measure leak conductance. Test pulses stepping from the holding potential (VH) of −90 mV to +10 mV were applied for 20 ms and repeated 10 times at a frequency of 10 Hz. In all experiments, the test pulse protocol was performed in the absence (pre-read) and presence (post-read) of a compound. Pre- and post-reads were separated by a compound addition followed by a 3-3.5 min incubation. […]
SMILES,activity in the hCav2.2 assay,further results
"C[C@@H]1C(=O)N(C)CCN1Cc1nnnn1-c1ccc(C(F)(F)F)cc1 [Compound 89, (3R)-1,3-Dimethyl-4-({1-[4-(trifluoromethyl)phenyl]-1H-tetrazol-5-yl}methyl)-2-piperazinone[]]",showed activity,
"CC(C)N1CCN(Cc2nnnn2-c2cccc(C(F)(F)F)c2)CC1=O [Compound 87, 1-(1-Methylethyl)-4-({1-[3-(trifluoromethyl)phenyl]-1H-tetrazol-5-yl}methyl)-2-piperazinone]",showed activity,
"CS(=O)(=O)N1CCN(Cc2nnnn2-c2ccc(C(F)(F)F)cc2)CC1 [Compound 71, 1-(Methylsulfonyl)-4-({1-[4-(trifluoromethyl)phenyl]-1H-tetrazol-5-yl}methyl)piperazine]",showed activity,
"N#Cc1ccc(-n2nnnc2CN2CCC3(CCNC3)CC2)cc1C(F)(F)F [Compound 105, 4-[5-(2,8-diazaspiro[4.5]clec-8-ylmethyl)-1H-tetrazol-1-yl]-2-(trifluoromethyl)benzonitrile]",showed activity,use-dependent pUD30: ≥ 4.5
"Cl.FC(F)Oc1ccc(-n2nnnc2CN2C[C@@H]3C[C@H]2CO3)cc1 [Compound 125, (1S,4S)-5-[(1-{4-[(difluoromethyl)oxy]phenyl}-1H-tetrazol-5-yl)methyl]-2-oxa-5-azabicyclo[2.2.1]heptane hydrochloride]",showed activity,
"CCS(=O)(=O)N1CCN(Cc2nnnn2-c2ccc(C#N)cc2)CC1 [Compound 118, 4-(5-{[4-(ethylsulfonyl)-1-piperazinyl]methyl}-1H-tetrazol-1-yl)benzonitrile]",showed activity,use-dependent pUD30: ≥ 4.5
"FC1(F)CCN(CCc2nnnn2-c2ccc(C(F)(F)F)cc2)C1 [Compound 6, 5-[2-(3,3-Difluoro-1-pyrrolidinyl)ethyl]-1-[4-(trifluoromethyl)phenyl]-1H-tetrazole]",showed activity,
"Clc1ccc(-n2nnnc2CN2CCOCC2)c(Cl)c1 [Compound 10, 4-{[1-(2,4-Dichlorophenyl)-1H-tetrazol-5-yl]methyl}morpholine]",showed activity,
"C[C@@H]1CN(Cc2nnnn2-c2ccc(Br)cc2Cl)C[C@H](C)O1.Cl [Compound 57, cis-4-{[1-(4-Bromo-2-chlorophenyl)-1H-tetrazol-5-yl]methyl}-2,6-dimethylmorpholine hydrochloride]",showed activity,use-dependent pUD30 (hydrochloride): ≥ 4.5
"CCN1C[C@@H]2C[C@H]1CN2Cc1nnnn1-c1ccc(C(F)(F)F)cc1.Cl [Compound 97, (1S,4S)-2-Ethyl-5-({1-[4-(trifluoromethyl)phenyl]-1H-tetrazol-5-yl}methyl)-2,5-diazabicyclo[2.2.1]heptane hydrochloride]",showed activity,
"FC(F)(F)c1ccc(-n2nnnc2CN2CCOCC2)nc1 [Compound 38, 4-({1-[5-(Trifluoromethyl)-2-pyridinyl]-1H-tetrazol-5-yl}methyl)morpholine]",showed activity,
"Cl.N#Cc1ccc(-n2nnnc2CNC2CCCCC2)cc1 [Compound 60, 4-{5-[(Cyclohexylamino)methyl]-1H-tetrazol-1-yl}benzonitrile hydrochloride]",showed activity,
"O=S1(=O)CCC2CN(Cc3nnnn3-c3ccc(C(F)(F)F)cc3)CCN21 (centres unmarked) [Compound 78, 5-({1-[4-(Trifluoromethyl)phenyl]-1H-tetrazol-5-yl}methyl)hexahydro-2H-isothiazole[2,3-a]pyrazine 1,1-dioxide]",showed activity,
"CC1C(=O)N(C(C)C)CCN1Cc1nnnn1-c1cccc(C(F)(F)F)c1 (centres unmarked) [Compound 35, 3-Methyl-1-(1-methylethyl)-4-({1-[3-(trifluoromethyl)phenyl]-1H-tetrazol-5-yl}methyl)-2-piperazinone]",showed activity,use-dependent pUD30: ≥ 4.5; use-dependent pUD30 (listed as compound 35): ≥ 5.0
"CN1CCN(Cc2nnnn2-c2cccc(C(F)(F)F)c2)CC1=O [Compound 85, 1-Methyl-4-({1-[3-(trifluoromethyl)phenyl]-1H-tetrazol-5-yl}methyl)-2-piperazinone]",showed activity,
"C[C@@H]1CC[C@H](C)N1Cc1nnnn1-c1ccc(C#N)cc1 [Compound 37, 4-(5-{[(cis)-2,5-Dimethyl-1-pyrrolidinyl]methyl}-1H-tetrazol-1-yl)benzonitrile]",showed activity,use-dependent pUD30: ≥ 5.5
"CCC(CC)NCc1nnnn1-c1ccc(C#N)cc1.Cl [Compound 61, 4-(5-{[(1-Ethylpropyl)amino]methyl}-1H-tetrazol-1-yl)benzonitrile hydrochloride]",showed activity,use-dependent pUD30: ≥ 4.5
"C[C@@H]1CN(Cc2nnnn2-c2ccc(Cl)cc2)C[C@H](C)O1 [Compound 13, (cis)-4-{[1-(4-Chlorophenyl)-1H-tetrazol-5-yl]methyl}-2,6-dimethylmorpholine]",showed activity,
"Cl.N#CC1CCN(Cc2nnnn2-c2cccc(C(F)(F)F)c2)C1 (centres unmarked) [Compound 24, 1-({1-[3-(Trifluoromethyl)phenyl]-1H-tetrazol-5-yl}methyl)-3-pyrrolidinecarbonitrile hydrochloride]",showed activity,
"Cl.FC(F)(F)c1cccc(-n2nnnc2CNC2CCCCC2)c1 [Compound 65, N-({1-[3-(Trifluoromethyl)phenyl]-1H-tetrazol-5-yl}methyl)cyclohexanamine hydrochloride]",showed activity,
"C[C@@H]1COCCN1Cc1nnnn1-c1ccc(OC(F)F)cc1.Cl [Compound 54, (3R)-4-[(1-{4-[(Difluoromethyl)oxy]phenyl}-1H-tetrazol-5-yl)methyl]-3-methylmorpholine hydrochloride]",showed activity,
"CS(=O)(=O)N1CCN(Cc2nnnn2-c2cccc(C(F)(F)F)c2)CC1 [Compound 72, 1-(Methylsulfonyl)-4-({1-[3-(trifluoromethyl)phenyl]-1H-tetrazol-5-yl}methyl)piperazine]",showed activity,use-dependent pUD30: ≥ 5.5
"C[C@@H]1COCCN1Cc1nnnn1-c1ccc(S(C)(=O)=O)cc1 [Compound 117, (3R)-3-methyl-4-({1-[4-(methylsulfonyl)phenyl]-1H-tetrazol-5-yl}methyl)morpholine]",showed activity,use-dependent pUD30: ≥ 4.5
"CN1CCN(Cc2nnnn2-c2cccc(C(F)(F)F)c2)CC1(C)C.Cl [Compound 45, 1,2,2-Trimethyl-4-({1-[3-(trifluoromethyl)phenyl]-1H-tetrazol-5-yl}methyl)piperazine hydrochloride]",showed activity,
"CC1(C)COCCN1Cc1nnnn1-c1cccc(C(F)(F)F)c1.Cl [Compound 29, 3,3-Dimethyl-4-({1-[3-(trifluoromethyl)phenyl]-1H-tetrazol-5-yl}methyl)morpholine]",showed activity,
"FC1(F)CCN(Cc2nnnn2-c2ccc(C(F)(F)F)cc2)C1 [Compound 1, 5-[(3,3-Difluoro-1-pyrrolidinyl)methyl]-1-[4-(trifluoromethyl)phenyl]-1H-tetrazole]",showed activity,

# — US9750719B2, “Tetrazole compounds as calcium channel blockers” (CONVERGENCE PHARMACEUTICALS LIMITED, priority 2010, dated 2017)
